Experimental data from PubChem BioAssay AID504648 (National Center for Advancing Translational Sciences (NCATS), 2011).
About 610 (0.16%) of roughly 390,000 compounds were called active. This list was built around the results that the source calls inconclusive (neither active nor inactive); the mix of calls is not that of the screen. Calls follow the shape of the dose curve; as a rule, active = well fitted inhibition curve with a large enough effect; inconclusive = small, poorly fitted or top-dose-only effect, or effect the other way, or another doubt; inactive = no such curve, though single readings can be large or run the other way. Where the call is inconclusive, the potency comes from a doubtful curve fit.

Experiment: Nrf2 qHTS screen for inhibitors: counterscreen for cytotoxicity
Details: A549 ARE-Fluc cells, CellTiter-Fluor viability, 18-24 h; activity change, negative = cytotoxicity: at 46 µM (top of the series)
Method in brief: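 A549 ARE-Fluc cells in 5% FBS OPTI-MEM, 5000 cells/well, rested 2 h then exposed to compounds in concentration-response for 18-24 h at 37 °C. Viability by CellTiter-Fluor fluorescence (Ex 405/Em 525) after 30 min; luciferase luminescence (BugLite, 15 min, RT) read afterwards.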
% is scaled to controls: 0 for no effect and ±100 for the full control effect; potency is read from the fitted curve at half-maximal effect.

Q: For `O=C(Nc1cccc(Cl)c1)c1ccc2nc(CCc3ccccc3)oc2c1`, which “activity change, negative = cytotoxicity” value is on record?
A: inactive: 0.946%

Q: With `O=C(NCc1ccc(Cl)cc1)c1ccc(COCC(F)(F)F)o1` as the compound, how does the Potency read?
A: inconclusive: 29.1 µM [falling, single point]

Q: Which Potency does the source give for `CCCOc1ccc(/C=N/Nc2ccccc2[N+](=O)[O-])c(O)c1` here?
A: inconclusive: 23.1 µM [falling, partial curve, poor fit]

Q: With `CCCCN1C(=O)c2[nH]nc(-c3ccccc3O)c2C1c1ccc(C(C)(C)C)cc1` (stereo not given) as the compound, how does the Potency read?
A: inconclusive: 16.4 µM [falling, single point]

Q: For `CC(=O)Oc1ccc2cc(-c3nc4ccccc4n3C)c(=O)oc2c1`, which Potency is on record?
A: inconclusive: 20.6 µM [activator, single point]

Q: Which “activity change, negative = cytotoxicity” value does the source give for `CCC(=O)N1CCc2cc(Br)cc(S(=O)(=O)N3CCC(C(=O)Nc4ccccc4CC)CC3)c21` here?
A: inactive: 10%

Q: For `COc1ccc(-n2nc3c(N4CCCC(C(=O)NCc5ccc(C)cc5)C4)nnc(C)c3c2C)cc1` (stereo not given), which Potency is on record?
A: inconclusive: 20.6 µM [falling, single point]

Q: For `Cc1ccc(N=Nc2c(N)[nH]n3c(=O)cc(C)nc23)cc1`, which Potency is on record?
A: inconclusive: 16.4 µM [falling, partial curve, poor fit]

Q: Which Potency does the source give for `Oc1[nH]c2ccccc2c1C=Nc1ccc2c(c1)OCCO2` here?
A: inconclusive: 20.6 µM [falling, partial curve, poor fit]

Q: With `O=C1/C(=C/c2ccncc2)CCC/C1=C\c1ccncc1` as the compound, how does the Potency read?
A: inconclusive: 20.6 µM [falling, partial curve, poor fit]

Q: With `CN(Cc1c(F)cccc1Cl)c1nnnn1-c1ccccc1` as the compound, how does the “activity change, negative = cytotoxicity” value read?
A: inactive: -13.5%

Q: With `Cc1ccc2nc3c(c(N)c2c1)CCN3c1ccccc1` as the compound, how does the Potency read?
A: inconclusive: 29.1 µM [falling, single point]

Q: For `COc1ccc(NC(=O)c2ccco2)cc1S(=O)(=O)N1CCOCC1`, which “activity change, negative = cytotoxicity” value is on record?
A: inactive: 11.4%

Q: With `O=C(Nc1ccc(Oc2ccc(NC(=O)Nc3ccc([N+](=O)[O-])cc3)cc2)cc1)Nc1ccc([N+](=O)[O-])cc1` as the compound, how does the Potency read?
A: inconclusive: 25.9 µM [falling, single point]

Q: For `CC(=O)N1c2ccc(S(=O)(=O)N3CCCCCC3)cc2CC1C(=O)NC(C)C` (stereo not given), which “activity change, negative = cytotoxicity” value is on record?
A: inactive: 5.05%

Q: Which “activity change, negative = cytotoxicity” value does the source give for `CCCCCCC1(C)NC(=S)N(c2ccccc2)N1` (stereo not given) here?
A: inactive: 12.9%

Q: With `Cc1ccc(NC(=O)c2cc(-c3ccc(C)o3)nc3ccccc23)nc1` as the compound, how does the Potency read?
A: inconclusive: 6.51 µM [activator, single point]

Q: With `COc1ccc(C(=O)NCCn2cc(SCc3cccc(F)c3)c3ccccc32)cc1OC` as the compound, how does the “activity change, negative = cytotoxicity” value read?
A: inactive: -16.2%

Q: Which Potency does the source give for `CCOC(=O)c1c(C)n(C)c2ccc(OC)c(NC(=O)CCN3CCSCC3)c12` here?
A: inconclusive: 20.6 µM [activator, single point]

Q: Which Potency does the source give for `O=C(c1ccncc1)c1nccn1-c1ccccn1` here?
A: inconclusive: 7.31 µM [activator, partial curve, poor fit]

Q: Which “activity change, negative = cytotoxicity” value does the source give for `Cc1ccc(C(=O)Nc2ncc(Cc3ccc(F)cc3)s2)o1` here?
A: inactive: -5.74%

Q: With `O=S(=O)(Nc1ccc(-c2ccc(N3CCCCC3)nn2)cc1)c1ccc(OC(F)(F)F)cc1` as the compound, how does the “activity change, negative = cytotoxicity” value read?
A: inactive: -9.46%

Q: Which Potency does the source give for `CC(C)N1CCN(Cc2ccc3c(c2)Cc2ccccc2-3)CC1CCO` (stereo not given) here?
A: inconclusive: 29.1 µM [activator, single point]

Q: For `COc1ccc(/C=N/NC(=O)c2ccc(O)cc2)cc1CN1CCCc2ccccc21`, which “activity change, negative = cytotoxicity” value is on record?
A: inactive: -1.52%

Q: With `CCn1c(O)c(N=NC2=NC(=O)CS2)c2ccccc21` as the compound, how does the Potency read?
A: inconclusive: 20.6 µM [falling, partial curve, poor fit]

Q: Which Potency does the source give for `CN(CC(=O)Nc1cccc(S(=O)(=O)N2CCCC2)c1)CC(=O)Nc1ccc(Cl)c(C(F)(F)F)c1` here?
A: inconclusive: 23.1 µM [falling, single point]

Q: Which “activity change, negative = cytotoxicity” value does the source give for `Cc1cc(C)nc(SCc2cc(=O)c(OC(=O)c3ccc(Cl)c([N+](=O)[O-])c3)co2)n1` here?
A: inactive: -2.52%

Q: With `O=C(CSc1ncnc2c1oc1ccccc12)Nc1nc2ccccc2s1` as the compound, how does the Potency read?
A: inconclusive: 20.6 µM [falling, single point]

Q: Which Potency does the source give for `CC(C)COc1ccc(C(=O)Nc2ccc(NC(=O)c3ccco3)c(Cl)c2)cc1` here?
A: inconclusive: 16.4 µM [falling, partial curve, poor fit]

Q: For `Cc1ccc(C2C=C(c3ccccc3)Nc3nc(N4C(=O)CCC4=O)nn32)cc1` (stereo not given), which Potency is on record?
A: inconclusive: 13 µM [activator, single point]

Q: Which “activity change, negative = cytotoxicity” value does the source give for `CCC(=O)Nc1ccc(C(=O)NNC(=O)COc2cccc(C)c2)cc1` here?
A: inactive: 2.22%

Q: With `CC(C)Cn1c(=O)c2ccccc2n2c(CCC(=O)N3CCN(c4cccc(Cl)c4)CC3)nnc12` as the compound, how does the Potency read?
A: inconclusive: 25.9 µM [falling, single point]

Q: With `CC(=O)c1cccc(OCc2cc(C(=O)N(C)CCC3CCOCC3)no2)c1` as the compound, how does the “activity change, negative = cytotoxicity” value read?
A: inactive: -2.38%

Q: For `Cc1ccc(C(=O)N/N=C/c2ccc([N+](=O)[O-])s2)cc1`, which Potency is on record?
A: inconclusive: 11.6 µM [falling, partial curve]

Q: Which Potency does the source give for `CCCC(=O)Nc1ccc2c(c1)nc(CN1CCN(C(=O)OCC)CC1)n2C(C)C` here?
A: inconclusive: 2.91 µM [falling, partial curve, poor fit]

Q: With `O=C(c1ccccc1)c1nn(-c2ccccc2)c2nnc(Cc3ccccc3)c(=O)n12` as the compound, how does the Potency read?
A: inconclusive: 10.3 µM [falling, single point]

Q: With `O=C(Nc1ccccc1F)N1CCc2ccccc2C1` as the compound, how does the Potency read?
A: inconclusive: 18.4 µM [activator, partial curve, poor fit]

Q: Which Potency does the source give for `CC1(C)Cc2c(sc3c2C2=NCCN2C=N3)CS1` here?
A: inconclusive: 23.1 µM [activator, single point]

Q: For `CC(C)Cn1c(SCC(=O)NC(=O)NC2CCCC2)nc2ccccc21`, which Potency is on record?
A: inconclusive: 18.4 µM [falling, single point]

Q: Which “activity change, negative = cytotoxicity” value does the source give for `O=C(Nc1ccccc1C(=O)O)c1cccc(S(=O)(=O)Nc2ccc(Br)cc2)c1` here?
A: inactive: -0.312%

Q: With `CCN(CC)CCCNC(=O)c1c(O)c2cc(F)cc3c2n(c1=O)C(C)CC3` (stereo not given) as the compound, how does the Potency read?
A: inconclusive: 29.1 µM [falling, single point]

Q: Which Potency does the source give for `Cc1cc(Oc2cc(NN3CCCCC3)c([N+](=O)[O-])cc2[N+](=O)[O-])c(C(=O)c2ccccc2)cc1Cl` here?
A: inconclusive: 18.4 µM [falling, single point]

Q: Which Potency does the source give for `CCN1C(=O)/C(=C\C=C\c2ccccc2[N+](=O)[O-])SC1=S` here?
A: inconclusive: 0.651 µM [falling, partial curve, poor fit]

Q: For `O=C(COc1ccccc1Cl)N1CCc2ccccc21`, which “activity change, negative = cytotoxicity” value is on record?
A: inactive: -3.19%

Q: For `COc1cccc(C(=O)NNc2c3ccccc3nc3ccccc23)c1`, which Potency is on record?
A: inconclusive: 14.6 µM [falling, single point]

Q: Which Potency does the source give for `Cc1[nH]n(-c2ccccc2)c(=O)c1C=NCCc1ccccc1` here?
A: inconclusive: 29.1 µM [activator, single point]

Q: For `N#Cc1cc([N+](=O)[O-])ccc1Oc1cccc(/C=N/NC(=O)c2ccc(Cl)cc2)c1`, which Potency is on record?
A: inconclusive: 2.06 µM [falling, partial curve, poor fit]

Q: Which “activity change, negative = cytotoxicity” value does the source give for `CCc1ccccc1Nc1cc(C(=O)NCc2ccc(C)cc2)c2ccccc2n1` here?
A: inactive: -3.94%

Q: Which “activity change, negative = cytotoxicity” value does the source give for `CCN(CC)S(=O)(=O)c1ccc(N2CCN(c3ccccc3O)CC2)nc1` here?
A: inactive: -0.562%

Q: For `COC(=O)c1ccc(NC(=O)C2CCCN2C(=O)Nc2cccc(C(C)=O)c2)cc1` (stereo not given), which “activity change, negative = cytotoxicity” value is on record?
A: inactive: -8.34%

Q: Which Potency does the source give for `Cc1ccc(-n2nc3c(N4CCC(C(=O)N5CCN(C)CC5)CC4)nnc(C)c3c2C)cc1` here?
A: inconclusive: 16.4 µM [falling, partial curve, poor fit]

Q: With `COc1ccc(C)cc1Nc1nc2c(S(=O)(=O)c3cccc(Cl)c3)nnn2c2ccsc12` as the compound, how does the “activity change, negative = cytotoxicity” value read?
A: inactive: 0.613%

Q: Which Potency does the source give for `COc1cccc(OCC(=O)NC2CCCCC2)c1` here?
A: inconclusive: 3.26 µM [falling, partial curve, poor fit]

Q: With `COC1C=CC=C(C)C(=O)NC2=CC(=O)C(N)=C(CC(C)CC(OC)C(O)C(C)C=C(C)C1OC(N)=O)C2=O` (stereo not given) as the compound, how does the Potency read?
A: inconclusive: 7.31 µM [falling, partial curve]

Q: With `O=C(Nc1nc2nc(-c3ccccc3)cc(-c3ccccc3)n2n1)c1ccco1` as the compound, how does the Potency read?
A: inconclusive: 23.1 µM [falling, single point]

Q: For `COc1ccccc1CNC(=O)CN1C(=O)c2cccc(N)c2C1=O`, which Potency is on record?
A: inconclusive: 14.6 µM [activator, partial curve, poor fit]

Q: With `CCN(C(=O)c1ccco1)c1nc(CC(=O)Nc2ccc(Cl)cc2)cs1` as the compound, how does the “activity change, negative = cytotoxicity” value read?
A: inactive: -16.9%

Q: With `COc1ccccc1-n1c(-c2ccccc2)c[n+]2c1CCc1ccccc1-2` as the compound, how does the Potency read?
A: inconclusive: 7.31 µM [falling, partial curve, poor fit]

Q: With `O=C(Nc1ccc2nc(-c3cccs3)c(-c3cccs3)nc2c1)N1CCCC1` as the compound, how does the Potency read?
A: inconclusive: 32.6 µM [activator, partial curve, poor fit]

Q: Which Potency does the source give for `O=C(O)c1cccc(S(=O)(=O)Nc2ccc([N+](=O)[O-])cc2O)c1` here?
A: inconclusive: 20.6 µM [falling, single point]

Q: For `CC(=O)N[C@H]1[C@H]([C@H](O)[C@H](O)CO)O[C@](O)(C(=O)O)C[C@@H]1O`, which Potency is on record?
A: inconclusive: 0.651 µM [activator, full curve, poor fit]

Q: Which Potency does the source give for `C[C@@H]1NC(=O)c2cc([N+](=O)[O-])cc(I)c2NCC[C@@H](C(N)=O)NC(=O)[C@H](CC(N)=O)NC1=O` here?
A: inconclusive: 23.1 µM [falling, partial curve, poor fit]

Q: Which Potency does the source give for `CCOc1cc(/C=C2/SC(=S)N(CC(=O)O)C2=O)ccc1OC(=O)c1cccs1` here?
A: inconclusive: 29.1 µM [falling, single point]

Q: Which Potency does the source give for `O=C(Nc1ccc2c(c1)CCC2)Nc1ccc2c(c1)OCO2` here?
A: inconclusive: 32.6 µM [activator, partial curve, poor fit]

Q: For `O=C(Cn1cnc2cc([N+](=O)[O-])ccc2c1=O)Nc1cccc(S(=O)(=O)N2CCCCC2)c1`, which Potency is on record?
A: inconclusive: 25.9 µM [falling, partial curve, poor fit]
